Assay: Pull-down control without GST-Importin α (nonspecific binding to GSH beads)
Conditions: 100 μM; GST-Importin α omitted, 2.2 μM inactive Taspase 1-His

Structure (SMILES)	Nonspecific binding to the GSH beads
Cc1nn(-c2ccc(C#Cc3ccc(-c4cn(CCOP(=O)(O)Oc5c6c(c(OP(=O)(O)O)c7c5C5CC7c7cc8c(cc75)C5CC8c7ccccc75)C5CC6c6cc7c(cc65)C5CC7c6ccccc65)nn4)cc3)cc2)c(C)c1N=Nc1ccc(C#Cc2ccc(-c3cn(CCOP(=O)(O)Oc4c5c(c(OP(=O)(O)O)c6c4C4CC6c6cc7c(cc64)C4CC7c6ccccc64)C4CC5c5cc6c(cc54)C4CC6c5ccccc54)nn3)cc2)cc1 [TWAAP4]	displayed Taspase 1-His in the eluate
Cc1nn(-c2ccc(-c3cn(CCOP(=O)(O)Oc4c5c(c(OP(=O)(O)O)c6c4C4CC6c6cc7c(cc64)C4CC7c6ccccc64)C4CC5c5cc6c(cc54)C4CC6c5ccccc54)nn3)cc2)c(C)c1N=Nc1ccc(-c2ccc(-c3cn(CCOP(=O)(O)Oc4c5c(c(OP(=O)(O)O)c6c4C4CC6c6cc7c(cc64)C4CC7c6ccccc64)C4CC5c5cc6c(cc54)C4CC6c5ccccc54)nn3)cc2)cc1 [TWAAP3]	no detectable nonspecific binding
